Values of other authors, collected in US12697345B2, “Microparticles containing stabilized CBD oil, and methods for the production thereof” (priority 2021, dated 2026).
The name of at least one read-out is uncertain.

Conditions: aerosolized

C=C(C)[C@@H]1CCC(C)=CC1c1c(O)cc(CCCCC)cc1O (stereo partly drawn) [CBD, 2-[(6R)-3-methyl-6-prop-1-en-2-ylcyclohex-2-en-1-yl]-5-pentylbenzene-1,3-diol]
Bioavailability relative to oral administration: higher bioavailability than oral administration
